One substance from publication PMC11256434 can be followed below.

The chains behind the UniProt entries cited, without tags or fusion partners.
UniProt Q9NRC8: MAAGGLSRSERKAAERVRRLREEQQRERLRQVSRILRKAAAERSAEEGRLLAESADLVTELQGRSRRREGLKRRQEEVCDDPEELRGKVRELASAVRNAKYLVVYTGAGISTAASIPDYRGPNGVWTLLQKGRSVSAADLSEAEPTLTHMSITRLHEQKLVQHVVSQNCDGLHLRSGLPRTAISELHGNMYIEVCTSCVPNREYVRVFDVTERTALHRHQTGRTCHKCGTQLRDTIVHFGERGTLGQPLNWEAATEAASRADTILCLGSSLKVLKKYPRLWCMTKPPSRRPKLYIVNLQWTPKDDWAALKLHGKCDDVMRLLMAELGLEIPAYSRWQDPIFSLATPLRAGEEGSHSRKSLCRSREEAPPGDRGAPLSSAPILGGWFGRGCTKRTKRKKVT

The assay concerns the target T1, Forkhead Box M1 (human (endogenous in HEK-293T)) (UniProt Q08050).
T1 sequence: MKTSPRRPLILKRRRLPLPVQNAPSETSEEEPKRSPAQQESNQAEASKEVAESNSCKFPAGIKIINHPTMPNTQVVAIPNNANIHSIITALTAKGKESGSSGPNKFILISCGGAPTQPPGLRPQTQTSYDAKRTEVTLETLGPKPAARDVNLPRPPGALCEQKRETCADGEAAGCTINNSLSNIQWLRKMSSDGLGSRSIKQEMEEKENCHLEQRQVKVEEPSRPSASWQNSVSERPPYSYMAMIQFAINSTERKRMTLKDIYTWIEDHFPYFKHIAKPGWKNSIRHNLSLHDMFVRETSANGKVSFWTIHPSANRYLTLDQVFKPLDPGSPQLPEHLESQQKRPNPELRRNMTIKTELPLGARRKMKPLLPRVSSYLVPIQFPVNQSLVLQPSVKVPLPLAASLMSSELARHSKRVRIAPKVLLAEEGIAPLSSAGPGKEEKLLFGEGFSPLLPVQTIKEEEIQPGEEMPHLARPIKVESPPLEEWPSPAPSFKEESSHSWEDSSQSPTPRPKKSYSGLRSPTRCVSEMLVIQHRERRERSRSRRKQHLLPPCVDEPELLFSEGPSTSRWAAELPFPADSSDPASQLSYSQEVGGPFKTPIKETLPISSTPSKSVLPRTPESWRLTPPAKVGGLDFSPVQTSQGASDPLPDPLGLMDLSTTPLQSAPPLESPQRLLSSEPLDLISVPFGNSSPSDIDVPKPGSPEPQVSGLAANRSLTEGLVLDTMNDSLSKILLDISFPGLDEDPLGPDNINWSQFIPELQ
In words: co-IP; HEK-293T cells lysed in RIPA buffer with protease inhibitors; FOXM1, SIRT7 or IgG antibody overnight at 4 °C, protein A agarose beads, western blot.

Results are given in words; binding and its absence hold for the method and conditions named. Binding seen in cells or lysates may run through a third protein. Some binding calls cover weakened binding; strength is not graded here.

With “sirtuin 7 (from UniProt Q9NRC8 1-400) (enzyme)”, the binding result was “binds”.
